Structures were worked out from names or drawings and are uncertain.
Target: APOL1 G1 Protein (Homo sapiens, UniProt O14791, I384M/S342G)
Test: Trypanosoma brucei brucei lysis assay using APOL1 recombinant protein (AlamarBlue viability)
Assay type: cell-based
Conditions: read-out: Trypanosoma Assay (IC50)
Excerpt: Trypanosoma brucei brucei is a blood stream parasite to which human, gorillas and baboon are immune due to the presence of the APOL1 protein in their HDL particles. The protein is uptaken by the parasite via the TbHpHb receptor located in its flagellar pocket and is bonded by the Hpr protein contained in the HDL particles which triggers the receptor endocytosis by the parasite.
Following endocytosis, the formed vesicle containing the HDL particle matures from early to late endosome, and subsequently to lysosome. […]
Briefly, the AlamarBlue active compound, the resazurin, a blue, water soluble, non-toxic and cell permeable molecule, which can be followed by absorbance, is reduced by various metabolic pathways into resorufin, a red compound which can be followed by either absorbance or fluorescence. […]
Assay Ready Plates (ARPs) • ARPs comes in two formats: • […] final top concentration with a 2.5 fold dilution down. • […] final top concentration with a 3 fold dilution down. • Both have a 10 point Dose response. • 0.1% DMSO final in the Black Assay Plate. • Compounds are diluted 1000 fold in the Black Assay Plate. • Each plate is designed for 14 compounds in duplicate. • In the final Black Assay Plate: […]

Sequences of proteins named here, by UniProt entry; tags and fusion partners are left off. Residues count along the entry.
UniProt O14791, 28-398 S342G/I384M limits assumed: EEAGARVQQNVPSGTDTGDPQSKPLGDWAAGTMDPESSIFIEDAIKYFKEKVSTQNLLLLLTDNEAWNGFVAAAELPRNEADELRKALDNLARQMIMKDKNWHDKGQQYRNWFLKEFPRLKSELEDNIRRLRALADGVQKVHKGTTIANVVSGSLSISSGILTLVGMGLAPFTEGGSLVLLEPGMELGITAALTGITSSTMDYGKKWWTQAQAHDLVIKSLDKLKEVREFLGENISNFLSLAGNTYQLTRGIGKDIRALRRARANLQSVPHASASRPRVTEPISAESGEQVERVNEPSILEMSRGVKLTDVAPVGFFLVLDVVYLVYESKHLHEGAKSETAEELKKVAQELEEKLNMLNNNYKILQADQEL

Compound: CC(O)[C@H](CO)NC(=O)[C@H]1C[C@H](c2c(-c3ccc(F)cc3)[nH]c3c(F)cc(F)cc32)C1 (stereo partly shown)
- IC50: < 250 nM

Reference: patent US12116343B2, “Inhibitors of APOL1 and methods of using same” (Vertex Pharmaceuticals Incorporated, priority 2020, dated 2024)
